Source: PMC11068012
These are yes or no findings as the source states them, for the method shown. Binding seen in cells or lysates may run through a third protein.

Target: Enhancer of Zeste [E(z)] (D. melanogaster (endogenous in larval CNS)) (UniProt P42124)
Assay: co-IP; third instar larval CNS protein extracts (1 mg per reaction; 25 mM Hepes, 0.1 mM EDTA, 12.5 mM MgCl2, 10% glycerol, 0.01% NP-40, 10 mM NaCl; sonicated), precipitated with anti-Ph or anti-E(z) overnight at 4°C on protein A/G beads, Western blot

Substance: Drosophila TET (TET-GFP fusion protein from Tet-GFP knock-in flies) (from UniProt M9NEY8-5 1-2921)
- binding: no binding
